Results reported in PubChem BioAssay AID2685 (National Center for Advancing Translational Sciences (NCATS), 2010).
Some of the results follow. The main result of the screen is listed elsewhere. These columns were measured beside it and carry no call. Compounds called inactive in the main read-out are mostly missing here. Potencies come from curve fits of mixed quality, noted in brackets.

Test: qHTS Assay for Lipid Storage Modulators in Drosophila S3 Cells;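 as to cell number change: cells counted by Cell Tracker Red CMTPX staining in the red channel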
Details: BODIPY lipid droplet fluorescence, 18-24 h; for cell number change: measured here: cell count max response, cells fed with added oleic acid
How it was run: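 Drosophila S3 cells loaded with oleic acid (400 uM, as added) and compounds at several concentrations; lipid droplets imaged by 488-nm laser-scanning cytometry, 500–530 nm intensity and object ratio to cell channel. Percent activity normalized to 20 uM Triacsin C.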

[1] = measured here: lipid fluorescence (Fed channel) AC50, cells fed with added oleic acid
[2] = measured here: cell number channel AC50, cells fed with added oleic acid

| SMILES | cell number change | AC50 [1] | AC50 [2] |
| --- | --- | --- | --- |
| O=C(Cn1nc(-c2ccco2)ccc1=O)Nc1cc(Cl)ccc1Cl | -12.7% | 20.6 µM [falling, single point] |  |
| COc1ccccc1OCCNC(=O)CCC(=O)N1CCOCC1 | 2.3% | 7.31 µM [falling, partial curve, poor fit] |  |
| CC(Oc1ccc(Cl)cc1)C(=O)Nc1ccc(S(=O)(=O)N2CCOCC2)cc1 (stereo not drawn) | 4.7% | 6.51 µM [falling, partial curve] |  |
| Cc1cccc(C(=O)NC(NCCc2ccccc2)C(Cl)(Cl)Cl)c1 (stereo not drawn) |  |  | 0.116 µM [rising, full curve, poor fit] |
| CCOC(=O)C1=C(C)OC(N)=C(C#N)C1c1cc(SCC)oc1C (stereo not drawn) | -23.2% | 29.1 µM [falling, single point] |  |
| C=CCn1c(SCC(=O)Nc2nc(C)cs2)nnc1C(NC(=O)c1ccccc1)C(C)C (stereo not drawn) | -54% | 13 µM [falling, partial curve] | 14.6 µM [falling, single point] |
| CCOc1ccc2sc(NS(=O)(=O)c3ccc(OC)c(OC)c3)nc2c1 | 16% | 5.17 µM [falling, partial curve] |  |
| O=C(Cc1ccc(Cl)cc1Cl)OCC(=O)N1CCCCC1 | 11.7% |  |  |
| Cc1ccc(/C(O)=C2/C(=O)C(=O)N(Cc3ccco3)C2c2cccs2)cc1 (stereo not drawn) | -3.93% |  |  |
| COc1ccc(S(=O)(=O)NCC2CCCO2)cc1NC(=O)c1ccc(Cl)cc1 (stereo not drawn) | 64.6% |  | 29.1 µM [rising, single point] |
| COc1ccc(NC(=O)n2ncc3cc(Cl)ccc32)cc1OC | -16.2% | 0.103 µM [falling, full curve] |  |
| CN1C(=O)C(O)(CC(=O)c2cccc(-n3cccc3)c2)c2ccccc21 (stereo not drawn) |  | 6.51 µM [rising, single point] |  |
| COc1cccc(NC(=O)COC(=O)/C=C/c2ccc(Cl)cc2Cl)c1 | -1.1% |  |  |
| c1cnc2cc(-c3ccsc3)ncc2c1 | 2.72% |  |  |
| COc1c2ccccc2c(OC)c2ccccc12 | -47.3% | 29.1 µM [falling, partial curve, poor fit] | 32.6 µM [falling, partial curve] |
| CCC(=O)NC(=S)Nc1ccc(NC(=O)c2cc3ccccc3o2)c(OC)c1 | -44.9% | 7.31 µM [falling, partial curve] | 10.3 µM [falling, partial curve, poor fit] |
| COc1ccc(NC(=O)c2cc(-c3cccnc3)nc3ccc(C)cc23)cc1OC | -68.1% | 29.1 µM [falling, single point] | 29.1 µM [falling, single point] |
| COc1ccccc1OCC(=O)Nc1ccc(-c2nnc(-c3ccco3)o2)cc1 | -9.61% | 0.116 µM [falling, full curve, poor fit] |  |
| COc1ccc(-c2nc3ccccc3c(=O)n2CCOc2ccccc2C)cc1 | 11.2% | 2.59 µM [rising, partial curve] |  |
| CCOc1nc(Nc2ccc(F)cc2)nc(N2CCN(c3ccc(OC)cc3)CC2)n1 | 8.18% | 1.84 µM [rising, partial curve] |  |

Among those listed so far, two contain a thiophene ring, fused or not:

| SMILES | cell number change | AC50 [1] | AC50 [2] |
| --- | --- | --- | --- |
| Cc1ccc(/C(O)=C2/C(=O)C(=O)N(Cc3ccco3)C2c2cccs2)cc1 (stereo not drawn) | -3.93% |  |  |
| c1cnc2cc(-c3ccsc3)ncc2c1 | 2.72% |  |  |

Continuation.

| SMILES | cell number change | AC50 [1] | AC50 [2] |
| --- | --- | --- | --- |
| COC(=O)C1=C(N)Oc2cc(C)n(Cc3ccccc3)c(=O)c2C1c1ccccc1 (stereo not drawn) | 59.5% | 6.51 µM [rising, single point] | 5.17 µM [rising, full curve] |
| CN(C)C(=O)CCN1CCOCC1 | 9.48% |  |  |
| O=S(=O)(NCC1CCN(c2ccc(S(=O)(=O)N3CCOCC3)cc2)CC1)c1ccccc1 | 31% |  | 23.1 µM [rising, single point] |
| O=C(CCNS(=O)(=O)c1ccccc1C(F)(F)F)Nc1ccncc1 | 11.9% | 16.4 µM [rising, partial curve, poor fit] |  |
| COc1ccc(Cl)cc1NC(=O)CCN1CCN(C)CC1 | -1.43% | 14.6 µM [rising, partial curve] |  |
| Cc1ccc2c(c1)N(S(=O)(=O)c1ccc(CN3C(=O)c4cccnc4C3=O)s1)CCO2 |  | 0.116 µM [rising, full curve, poor fit] |  |
| CCC(C)(C)n1nnnc1C(c1ccc(C)cc1)N1CCN(Cc2cccnc2)CC1 (stereo not drawn) | -5.52% | 0.116 µM [rising, full curve, poor fit] |  |
| CSc1ncccc1C(=O)N1CCCC(N2CCN(c3ccccc3F)CC2)C1 (stereo not drawn) | -8.04% |  |  |
| COc1ccccc1Cn1c(=S)[nH]c2ccc(F)cc2c1=O | 14.1% |  | 5.17 µM [rising, partial curve] |
| Cc1ccccc1OCC(=O)Nc1ccccc1N1CCCCC1 | -27.2% | 13 µM [falling, partial curve] |  |
| CCOP(=O)(OCC)c1nc(-c2ccc(Cl)cc2Cl)oc1N1CCCCC1 | 8.21% | 0.58 µM [falling, single point] |  |
| O=C(COc1ccc(Br)cc1)N/N=C1/SCC(=O)N1Cc1ccco1 | -50.5% |  | 25.9 µM [falling, partial curve] |
| O=C(CCn1c(=O)c2cccn2c2ccc(F)cc21)NCc1cccc(F)c1 | -54.2% |  | 29.1 µM [falling, single point] |
| Cc1nn(C)c(C)c1/C=N/N=C1\CCC2C3CCc4cc(O)ccc4C3CCC12C (stereo not drawn) | -8.48% |  |  |
| C[C@H](C(O)c1ccccc1)N(C)C(=O)CN (stereo partly drawn) |  | 29.1 µM [rising, single point] |  |
| Cc1ccc(C)n1-n1c(C)nc2sc(-c3ccccc3)cc2c1=O |  | 2.31 µM [rising, partial curve] | 2.91 µM [rising, partial curve] |
| CC(C)NCC(=O)C12CC3CC(CC(C3)C1)C2 | 0.117% |  |  |
| CCC(=O)OCCCCCCOc1ccc(C(=O)O)cc1 | -24.2% | 20.6 µM [rising, single point] |  |
| COC(=O)c1ccc(COC(=O)CNC(=O)c2ccc(-c3ccccc3)cc2)cc1 | 6.11% | 29.1 µM [falling, single point] |  |
| COc1cccc(CNC(=O)COC(=O)c2cc(Br)c(Br)s2)c1 | -52.5% |  | 23.1 µM [falling, single point] |
